Measured values from patent US20210162067A1 (SIRNAOMICS, INC., priority 2018, published 2021).

Assay: peptide synthesis
Conditions: whole synthesis, RPHPLC

Substance: K(HHHK)4CSSC (KHHHKHHHKHHHKHHHKCSSC; branched peptide)
- purity (crude or final not stated): 90.0%
